This passage reports binding results from patent US7098012.

Sequences of proteins named here, by UniProt entry; tags and fusion partners are left off. A change or cut given only in a name is not applied to a line headed by its entry.
UniProt Q9UBB5: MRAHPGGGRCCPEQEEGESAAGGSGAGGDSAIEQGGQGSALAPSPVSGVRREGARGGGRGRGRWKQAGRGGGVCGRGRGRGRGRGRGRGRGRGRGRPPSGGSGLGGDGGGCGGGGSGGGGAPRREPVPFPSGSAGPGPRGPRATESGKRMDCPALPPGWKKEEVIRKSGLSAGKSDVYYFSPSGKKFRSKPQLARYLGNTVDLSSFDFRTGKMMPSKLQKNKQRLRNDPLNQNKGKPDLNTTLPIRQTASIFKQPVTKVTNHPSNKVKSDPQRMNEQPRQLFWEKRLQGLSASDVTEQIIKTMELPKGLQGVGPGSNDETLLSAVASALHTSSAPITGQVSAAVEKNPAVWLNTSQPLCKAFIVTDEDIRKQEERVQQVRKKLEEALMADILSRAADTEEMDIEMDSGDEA

Results are given in words; binding and its absence hold for the method and conditions named. Some results given as binding are weak or reduced against the parent protein; the word gives no strength.

The assay concerns the target cloned human DNA demethylase (dMTase1), His-tagged, transiently expressed from pcDNA3.1/His Xpress in human embryonal kidney cells (human) (UniProt Q9UBB5). Nature of the assay: non-denaturing glycerol gradient sizing of transiently expressed, Ni2+-purified dMTase; activity fractionated at the 160-190 KDa range against about 40 KDa for the polypeptide (data not shown).

On to “cloned human DNA demethylase (dMTase1), His-tagged, transiently expressed from pcDNA3.1/His Xpress in human embryonal kidney cells (from UniProt Q9UBB5 150-411) (enzyme)”, for which the binding entry is “binds”.
